Measurements: patent US20250249120A1 (CHILDREN S HEALTH CARE D B A CHILDREN S MINNESOTA, published 2025)
These are yes or no findings as the source states them, for the method shown. Some entries that bind do so weakly or less than the wild type.

Columns and labels:
[1] = biological target: T1, CD179a (VpreB1) component of the pre-BCR surrogate light chain, on B-ALL cells (human) (UniProt P12018); assay: flow cytometry, primary B-ALL Day 1/Day 28 pairs
T1 sequence (looked up): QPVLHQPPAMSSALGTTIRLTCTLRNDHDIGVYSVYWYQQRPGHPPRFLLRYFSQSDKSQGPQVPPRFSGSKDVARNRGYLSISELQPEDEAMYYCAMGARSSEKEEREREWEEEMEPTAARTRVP

[2] = biological target: T1, CD179a (VpreB1) component of the pre-BCR surrogate light chain, on B-ALL cells (human); assay: flow cytometry, end-induction samples, COG MRD Panel
[3] = biological target: T1, CD179a (VpreB1) component of the pre-BCR surrogate light chain, on B-ALL cells (human); assay: flow cytometry, 36 Day 0 primary B-ALL samples
[4] = biological target: T1, CD179a (VpreB1) component of the pre-BCR surrogate light chain, on B-ALL cells (human); assay: flow cytometry on Nalm6, REH, SEM, PDX B1 and PDX B2 cells
[5] = biological target: T1, CD179a (VpreB1) component of the pre-BCR surrogate light chain, on B-ALL cells (human); assay: flow cytometry, primary B-ALL samples

Measured: binding

B1: recombinant FITC-conjugated mAb against CD179a (CD179a IgG1/kappa construct) (antibody, V domains shown)
VH: EVQLVESGGGLVKPGGSLRLSCAASGFTFSNFEMNWVRQAPGKGLEWVSGISSNGRYINYADSVKGRFTISRDNAKNSLYLQMNSLRAEDTAVYYCARVVDFDQDYNGFDYWGQGTLVTVSS
VL: DIQLTQSPSFLSASVGDRVTITCRASQGISTDLNWYQQKPGKAPKLLIYAASNLESGVPSRFSGSGSGTEFTLTISSLQPEDFATYYCQQSYNWPYTFGGGTKVEIKR
modifications: FITC label (Abcam conjugation kit), labelled residues not stated
binds: all assays above
